Test results from the supplement of paper PMC3334620.
Over roughly 33,000 sequences, “E-score (-0.5 to 0.5)” has its median near -0.016; the highest 2% begin near 0.3. The list shows a part of the results.

The sequences below were run against T1, Yer184c (UniProt P39961) (assay: PBM E-score (8-mer binding enrichment) (E-score (-0.5 to 0.5)); higher = stronger / more preferred TF binding). Settings: protein concentration: 100 nM; construct: GST-full length.
T1 sequence: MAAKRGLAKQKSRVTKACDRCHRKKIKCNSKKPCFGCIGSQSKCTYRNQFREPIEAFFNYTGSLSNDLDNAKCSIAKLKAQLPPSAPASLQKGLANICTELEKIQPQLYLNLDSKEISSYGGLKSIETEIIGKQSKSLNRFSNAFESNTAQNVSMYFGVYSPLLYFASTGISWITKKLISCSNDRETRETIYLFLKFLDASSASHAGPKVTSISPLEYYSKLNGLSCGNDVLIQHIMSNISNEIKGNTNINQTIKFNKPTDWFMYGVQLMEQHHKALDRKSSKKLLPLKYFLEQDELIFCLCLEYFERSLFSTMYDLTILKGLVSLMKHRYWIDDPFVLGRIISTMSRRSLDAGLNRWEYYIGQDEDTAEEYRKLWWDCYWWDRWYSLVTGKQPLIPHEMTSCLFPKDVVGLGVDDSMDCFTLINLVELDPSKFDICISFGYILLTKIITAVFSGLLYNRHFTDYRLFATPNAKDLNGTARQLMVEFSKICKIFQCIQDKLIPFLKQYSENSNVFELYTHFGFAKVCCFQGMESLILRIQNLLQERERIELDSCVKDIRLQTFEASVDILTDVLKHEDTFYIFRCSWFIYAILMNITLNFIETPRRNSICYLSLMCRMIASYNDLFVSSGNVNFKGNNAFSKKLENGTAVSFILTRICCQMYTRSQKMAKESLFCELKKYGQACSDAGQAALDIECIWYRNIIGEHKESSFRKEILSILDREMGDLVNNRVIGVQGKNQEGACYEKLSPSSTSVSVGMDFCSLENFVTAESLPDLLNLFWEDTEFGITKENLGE
How it was run: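 Full-length yeast transcription factors or their DNA-binding domains, GST-tagged and expressed with PURExpress, were applied at about 100-200 nM to universal all-10-mer Agilent arrays. These arrays had been made double-stranded by primer extension on fresh or once-stripped slides. Detection used fluorescent anti-GST, normalisation used masliner, and E-scores for ungapped eight-base words pooled with reverse complements came from the Universal PBM Analysis Suite.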

Sequence	PBM E-score
ACCGTCAC	-0.186
CAAAGGAA	0.106
AAGTCTAT	-0.0518
CATTTGGG	-0.207
CGCTATTA	0.126
AGGTATCG	0.134
CTGGGGTC	-0.251
GACCCCGC	-0.102
AGTGGACG	0.0349
ACTATTTG	0.0163
AACCTGTA	-0.109
CTTGGCTA	-0.17
CCACCCTC	-0.0355
CCCAGGAA	-0.237
ATGCCGAA	0.408
GAAGACGA	-0.0807
ACGTTGCA	0.0145
ATTCGAAT	-0.0224
AGCAATTA	0.125
AACTGAGG	-0.00025
GGTGAACA	-0.0714
AATGACTG	0.0667
ACGCAATC	-0.0855
ACGTTCCA	-0.125
AACTAGGT	0.161

Sequence	PBM E-score
CCTGGACG	-0.284
AAATCTCT	-0.0406
GTAACTAC	0.0431
CGGAGGCA	0.0415
CGACAGAC	-0.206
AGGTACAA	0.00829
CGAAGCCA	-0.0538
ATTCCGAC	0.211
AACCACAA	0.0437
GCGCCTTA	-0.00956
AGTGCGAT	-0.115
TCTGCCCA	-0.0708
GGTTTTGA	0.177
GGTTCAGA	-0.0461
CTTTTGGA	0.0266
AGAGGACC	-0.232
CCGATACC	0.0384
TCCAGAGA	-0.149
TCAATAAA	0.141
CCCTCACA	-0.0867
ACCATCTC	-0.0756
CCTCCTGC	-0.278
AACCTTGG	-0.201
CGCATTAA	0.135
CTGGACAA	-0.116

Rewritten bar-delimited: entries from further up.
Sequence | PBM E-score
TCTGCCCA | -0.0708
GGTTTTGA | 0.177
GGTTCAGA | -0.0461
CTTTTGGA | 0.0266

Given with bars between the fields: entries from further up
Sequence | PBM E-score
AGTGCGAT | -0.115
TCTGCCCA | -0.0708
GGTTTTGA | 0.177
GGTTCAGA | -0.0461
CTTTTGGA | 0.0266
AGAGGACC | -0.232
CCGATACC | 0.0384

Remaining list, next part:

Sequence	PBM E-score
CAACCCAG	-0.222
ACCACCGA	-0.0296
CGACAAAA	0.229
GACCTCAA	0.0464
CAGCGAAG	-0.0684
CCCACCGC	0.00758
ATCTCCTG	0.0927
GCACGCCA	-0.149
ATTGTTCG	0.346
CAACCGAG	0.143
GCTCGAAA	0.106
GCGGCGCC	0.299
TCTCTAAA	0.00454
ATAGAGGC	-0.187
CCATATGA	-0.127
ATTCAGGA	0.0123
CTTCACGA	-0.182
AGTATCGC	-0.109
GCATGGTA	-0.0508
AAAGAACT	0.102
CTTTTCGA	0.0568
GTATCGAA	0.0942
TATTCGCA	0.0122
CGAACAAA	0.285
ATGTCACG	-0.101

Sequence	PBM E-score
CGATGATC	-0.0994
AGGGAGGC	-0.301
ACTCGCGG	0.192
AAGACGAG	-0.109
GAGGCAAA	0.0232
GACGGTGC	-0.132
AGCGTTGA	-0.0726
GTGGCCAC	-0.0584
ATGAGGTG	-0.235
TGGACACA	-0.0238
GCAGGGTA	-0.112
AATCCCTG	-0.233
ATCGCTCG	-0.0215
ACGATAAC	0.0512
ACTACACT	-0.0405
ACTGGAAC	0.0557
TTTATAAA	0.348
AGTCGATG	-0.0896
AAGCCAGT	-0.229
CAGACCAC	-0.149
TACCGAGA	0.255
AAGCCCCG	-0.138
AATTTGAC	0.166
GACTCAGA	-0.128
TTGAGCAA	0.0285

Sequence	PBM E-score
GCAGAGAC	-0.274
GAGTACGC	-0.0395
ACTGCATC	-0.0841
CGGTTAAA	0.205
GAGGTTGA	-0.0617
ATTATAAA	0.249
CCTAGCGA	-0.239
TCCGTAGA	0.204
TAAACCTA	0.0218
CAGGCTTA	-0.0831
CTGGGTAC	-0.114
AGTGGAAC	-0.0214
AGGTCACT	-0.166
ACGGTAGG	-0.329
AGCGAACC	-0.0604
CTCAACCA	0.00025
CGACCCCA	-0.137
ACGGTTGG	-0.0688
ACCAGTAC	-0.114
ACTAGGCT	-0.109
CACGCACC	-0.066
CTGTCTGC	-0.122
CCTTCTAG	-0.237
AGGCTAGA	-0.153
ATTCGCTA	-0.0866

Sequence	PBM E-score
AAACCGTA	0.0356
AATCATCC	0.024
AGGGCGCC	-0.12
CATACGGC	0.058
GATATAGA	0.124
CTCATCAA	0.07
CGATAGCA	-0.114
ATGATCTA	0.0553
AATGAACG	-0.0978
AATACGAG	0.0402
AACCTACC	-0.134
AACCATCC	0.00041
CAGGCTCC	-0.18
AACAAAAT	0.0461
CAGCCCAC	-0.115
AGCTAGGG	-0.179
ACTCTCGA	-0.0924
ACAGTCCG	0.00379
ACCCTATG	-0.131
CGTATTAA	0.0867
GCGGGGCC	-0.00766
TATAAAGA	0.0956
CCCGGCCC	0.161
ACTAAGTC	-0.0184
ACTATCGC	-0.0823

Sequence	PBM E-score
CTTCTTAC	0.0607
AAAGCTGT	0.0157
GCCAATAA	0.0459
GCATGGCC	-0.224
GCCTTCCC	-0.218
TCGTACGA	0.0527
ATATAATC	0.142
AACCACGG	-0.0108
CCCAGCGG	-0.118
ATTGGGCC	0.0463
CGGCATTA	0.416
AGGAGGAC	-0.337
CCGCTCTA	0.0749
CTGGGGGA	-0.244
CAATGGGG	-0.192
CATAGTTC	0.0414
CGAACACC	0.0223
CGGCGAGA	0.192
ATGCCACC	-0.28
CTACATAC	-0.0774
ATTATAGC	0.0251
CCTGCATC	-0.175
AATGCCAG	-0.0319
ATGCGTAG	-0.0396
ACGATACT	-0.14

Look-ups from the results shown:
For PBM E-score, AACCACAA has 0.0437
For PBM E-score, ACCACCGA has -0.0296
For PBM E-score, ACCGTCAC has -0.186

(cont.)

Sequence	PBM E-score
CGCCAGCA	-0.175
TATATGCA	-0.0124
GTAGTAGA	0.0474
CAACAACA	0.162
CAGTGGAC	-0.0743
ATGCCTCA	-0.0508
CGGAGCAG	0.232
GCTGGCGA	-0.123
AGTACGAA	0.271
TAGTCGAA	-0.0527
ATTAATCG	0.16
GGCTCTGA	-0.0422
ATCACTTA	0.0177
GTGGGGCA	-0.175
CTGTAGGC	-0.0897
TCTCATCA	-0.0788
CTTACTTA	-0.174
CACGTTAC	-0.15
GGTGTAAA	-0.098
CTACACTA	-0.0776
ATAGTTAC	0.0694
ACAGGTCG	-0.258
AACCAACC	-0.161
AATTGTGG	-0.189
GATTTAAC	0.13

Sequence	PBM E-score
CTACGGCA	0.258
GTCGTTCA	0.042
CCGGCCAA	0.239
GGTTTCTA	0.0568
CTGTGTTA	0.00808
ATTATCCA	0.0655
GCACCCTA	-0.245
AATCCGTA	0.0372
AATCTTTC	0.0963
GTATGAAC	0.101
AATCACTG	0.0269
GCTGGGAC	-0.148
ACACTCGG	0.146
ATACACTG	-0.15
GACATACC	-0.128
AAGACACT	-0.0168
AGGTCTGG	-0.243
ATATACCC	0.021
CGCGAGCG	0.0639
